Tested on: foot-licking response of mouse
Assay: Foot-licking response of mouse caused by 2.5% formaldehyde
Assay type: in vivo
Settings: Morphine 10 (mg) SC, Eulektrol 0.15 ml/kg

Compound: CN1CC[C@]23c4c5ccc(O)c4O[C@H]2[C@@H](O)C=C[C@H]3[C@H]1C5.Cl [Morphine, morphine hydrochloric acid]
- Mice foot-licking counts after SC 2.5% formaldehyde (15 minutes): 1.2860 ± 2.630 Number
- Inhibition rate of foot-licking counts: more than 98%

— patent publication US20050042308A1, “Pharmaceutical composition having cholagogic and litholytic effect and its preparation method” (priority 2001, published 2005)
